Measurements: paper PMC6355032

Molecular target: PyCCR4-1::GFP (Plasmodium yoelii 17XNL)
Assay: affinity purification with mass spectrometry; PyCCR4-1::GFP immunoprecipitated via the GFP tag (biotin-conjugated anti-GFP on streptavidin dynabeads, 3 h, 4C) from synchronized schizonts crosslinked in 1% v/v formaldehyde and lysed in RIPA buffer; LC/MS/MS; three replicates scored by SAINT against control IPs (thresholds 0.1 and 0.35)

B1: OAT (protein, UniProt Q7RT90 1-414)
chain: MEFVKDLKTPEDYINNELKYGAHNYDPIPVVLKRAKGVFVYDVNDKRYYDFLSAYSSVNQGHCHPNILNAMINQAKNLTICSRAFFSVPLGICERYLTNLLGYDKVLMMNTGAEANETAYKLCRKWGYEVKKIPENMAKIVVCKNNFSGRTLGCISASTTKKCTSNFGPFAPQFSKVPYDDLEALEEELKDPNVCAFIVEPIQGEAGVIVPSDNYLQGVYDICKKYNVLFVADEVQTGLGRTGKLLCVHHYNVKPDVILLGKALSGGHYPISAVLANDDIMLVIKPGEHGSTYGGNPLAASICVEALNVLINEKLCENAEKLGGPFLENLKRELKDSKIVRDVRGKGLLCAIEFKNELVNVLDICLKLKENGLITRDVHDKTIRLTPPLCITKEQLDECTEIIVKTVKFFDERF
For B1, the binding was “binds”.

Results are given in words; binding and its absence hold for the method and conditions named. In cells and extracts the contact can be indirect. These calls come from enrichment with a bait or labelling near it, and not all partners need be listed.
